Test results: ChEMBL document CHEMBL6114964, “Discovery of novel spirocyclic derivates as potent androgen receptor antagonists” (Bioorg Med Chem, 2025)

System: LNCaP
Experiment: cells
Type: functional, cell-based
Conditions: Homo sapiens, 168 h

CNC(=O)c1ccc(N2C(=S)N(c3ccc(C#N)c(C(F)(F)F)c3)C(=O)C2(C)C)cc1F [ENZALUTAMIDE]
IC50: 1.72 µM
